Data from patent US20160115467A1 (Biogen, published 2016).
These are yes or no findings as the source states them, for the method shown. Some results given as binding are weak or reduced against the parent protein; the word gives no strength. Each block holds one binder with its values, some of them ahead of it.

Chains of the proteins cited; added tags and fusions are not shown. Lines headed by an entry give the natural chain unless they say otherwise; changes in a name come on top.
UniProt P08514: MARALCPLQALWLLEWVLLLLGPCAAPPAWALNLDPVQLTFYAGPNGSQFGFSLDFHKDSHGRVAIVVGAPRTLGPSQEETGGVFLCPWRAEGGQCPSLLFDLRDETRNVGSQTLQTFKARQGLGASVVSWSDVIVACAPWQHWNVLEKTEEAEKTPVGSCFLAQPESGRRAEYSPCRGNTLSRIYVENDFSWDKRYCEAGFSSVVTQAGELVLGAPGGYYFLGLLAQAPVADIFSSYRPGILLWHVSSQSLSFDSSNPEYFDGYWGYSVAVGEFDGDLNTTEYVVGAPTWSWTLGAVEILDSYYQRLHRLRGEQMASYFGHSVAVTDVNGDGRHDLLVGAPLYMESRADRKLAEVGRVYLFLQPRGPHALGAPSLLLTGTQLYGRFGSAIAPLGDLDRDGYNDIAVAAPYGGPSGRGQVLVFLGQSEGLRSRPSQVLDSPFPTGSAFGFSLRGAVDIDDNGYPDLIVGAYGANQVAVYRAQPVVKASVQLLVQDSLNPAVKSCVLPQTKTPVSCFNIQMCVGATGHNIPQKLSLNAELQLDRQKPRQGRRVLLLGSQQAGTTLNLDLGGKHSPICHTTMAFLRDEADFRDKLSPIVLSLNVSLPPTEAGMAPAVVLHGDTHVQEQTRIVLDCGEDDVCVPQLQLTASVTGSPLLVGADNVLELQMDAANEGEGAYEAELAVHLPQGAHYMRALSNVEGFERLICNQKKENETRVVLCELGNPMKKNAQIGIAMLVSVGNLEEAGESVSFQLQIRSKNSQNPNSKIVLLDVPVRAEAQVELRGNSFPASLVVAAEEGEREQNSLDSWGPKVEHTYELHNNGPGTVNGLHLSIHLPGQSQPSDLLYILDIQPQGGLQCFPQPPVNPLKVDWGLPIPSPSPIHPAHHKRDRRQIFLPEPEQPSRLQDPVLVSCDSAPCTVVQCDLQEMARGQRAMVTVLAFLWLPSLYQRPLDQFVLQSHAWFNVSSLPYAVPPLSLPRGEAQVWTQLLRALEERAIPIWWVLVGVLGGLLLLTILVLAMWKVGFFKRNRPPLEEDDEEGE

Biological target: T1, human GPIIb/IIIa on human platelets (human, UniProt P08514 32-1039; P05106 27-788)
T1 construct: Native receptor on gel-purified human platelets or platelets in diluted human whole blood; also called platelets in human whole blood
Assay: flow cytometry, hybridoma supernatant on human platelets

- binding: binds
B1: 1H6 (antibody, V domains shown)
VH: QVQLQQSGAELVRPGTSVKVSCKASGYAFTNYLIEWVKQRPGQGLEWIGVINPGSGGTNYNEKFKGKATLTADKSSSTAYMHLSSLTSDDSAVYFCARGRYEWYFDVWGAGTTVTVSS
VL: DIQMTQTTSSLSASLGDRVTISCRASQDITNYLNWYQRKPDGTVKLLIYYTSRLHSGVPSRFSGSGSGTDYSLTISNLEQEDIATYFCQQGYTLPYTFGGGTKLEIKR
notes: Mouse monoclonal from BALB/c hybridoma, tested as hybridoma supernatant; also called 1H6 antibody

- binding: binds
B2: 34D10 (antibody, V domains shown)
VH: EVKLVESGGGLVKPGGSLKLSCAASGFTFSAYAMSWVRQTPEKRLEWVASISSGGTTYYPDSVKRRFTISRDNARNILYLQMSSLRSEDTAMYYCTRGGDYGYALDYWGQGTSVTVSS
VL: ENVLTQSPAIMSASLGEKVTMSCRASSSVNYMYWYQQKSDASPKLWIYYTSNLAPGVPARFSGSGSGNSYSLTISSMEGEDAATYYCQQFSSSPWTFGGGTKLEIKR
notes: Mouse monoclonal from BALB/c hybridoma, tested as hybridoma supernatant (detected with anti-mouse IgG); also called monoclonal antibody 34D10; 34D10 antibody
